From patent US20130102009A1, “SIRTUIN ACTIVATORS AND ACTIVATION ASSAYS” (priority 2010, published 2013)
Part of at least one peptide drawing is inferred or uncertain, most often the ends. Square brackets hold non-standard residues; d marks the D form. Peptide text beside a SMILES is read from it. * marks the point of attachment. Biotin = O=C1N[C@H]2[C@H](CS[C@H]2CCCCC(=O)*)N1; Nle = CCCC[C@H](N)C(=O)O

Target: T1, SIRT1 (Homo sapiens, UniProt Q96EB6)
T1 sequence (Q96EB6 1-747): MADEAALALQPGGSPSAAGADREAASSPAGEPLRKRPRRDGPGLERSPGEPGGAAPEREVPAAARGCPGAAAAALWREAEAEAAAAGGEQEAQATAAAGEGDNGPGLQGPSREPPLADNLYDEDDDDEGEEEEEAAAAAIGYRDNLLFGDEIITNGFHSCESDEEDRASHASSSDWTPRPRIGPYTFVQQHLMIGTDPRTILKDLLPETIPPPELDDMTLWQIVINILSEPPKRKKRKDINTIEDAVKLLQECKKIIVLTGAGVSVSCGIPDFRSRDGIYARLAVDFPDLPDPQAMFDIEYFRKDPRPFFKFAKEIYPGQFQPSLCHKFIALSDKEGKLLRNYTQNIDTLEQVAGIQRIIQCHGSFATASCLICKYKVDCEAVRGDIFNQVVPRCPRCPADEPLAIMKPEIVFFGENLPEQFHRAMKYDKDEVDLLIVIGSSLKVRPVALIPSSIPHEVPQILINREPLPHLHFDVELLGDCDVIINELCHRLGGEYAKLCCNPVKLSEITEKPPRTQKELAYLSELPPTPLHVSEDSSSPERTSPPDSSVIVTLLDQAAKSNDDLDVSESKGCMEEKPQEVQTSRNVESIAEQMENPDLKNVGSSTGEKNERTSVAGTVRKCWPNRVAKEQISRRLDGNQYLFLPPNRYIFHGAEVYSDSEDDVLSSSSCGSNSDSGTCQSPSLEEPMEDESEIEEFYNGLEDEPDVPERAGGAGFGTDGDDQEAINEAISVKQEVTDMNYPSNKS
Test: Steady-state kinetic parameters for SIRT1 substrates (PNC1-GDH-coupled assay)
Assay type: biochemical
Parameters: kc/K1: unit not given here
Conditions: 25° C., pH 7.5, [NAD+]o = 2 mM, [SIRT1]o 50-1,000 nM
Procedure: All peptides were prepared by BioPeptide (San Diego, Calif.) and shown to be at least 95% pure by analytical HPLC analysis. Bovine glutamate dehydrogenase (GDH), α-ketoglutarate, NADH and NAD^+ were from Sigma Chemical Company. Full-length, human SIRT1 and the truncated version used for biophysical studies SIRT1(183-664) were prepared as described previously, and shown to have equivalent kinetic properties (Milne et al. (2007) Nature 450, 712-716). The nicotinamidase PNC1 was prepared as described by Denu and colleagues (Smith et al. (2009) Anal Biochem 394, 101-109).
To determine the interaction of STACs with SIRT1 two kinetic methods were employed. […] This reaction occurs with oxidation of NADH to NAD^+ which is accompanied by a change in absorbance at 340 nm (Δε340=−6,200 M^−1 cm^−1).
The kinetic experiments used to characterize activators were run on a Perkin Elmer Lambda 25 spectrophotometer equipped with a water-jacketed, eight-cell changer maintained at 25° C. […] While the system was reaching thermal equilibrium, the absorbance was monitored to provide an accurate estimate of the background rate, which was subtracted from the reaction rate after the addition of SIRT1.
The parameters reported in this table were all determined using the PNC1-GDH-coupled assay. […]

## CCCC[C@H](NC(=O)[C@H](CCCCNC(C)=O)NC(=O)[C@H](CO)NC(=O)[C@H](Cc1c[nH]cn1)NC(=O)[C@H](CO)NC(=O)[C@H](CO)NC(=O)[C@@H](NC(=O)[C@H](CO)NC(=O)[C@H](CCC(N)=O)NC(=O)CNC(=O)[C@H](CCCCNC(=O)CCCC[C@@H]1SC[C@@H]2NC(=O)N[C@@H]21)NC(=O)[C@H](CCC(=O)O)NC(=O)[C@H](CCC(=O)O)NC(C)=O)[C@@H](C)O)C(=O)N[C@@H](CO)C(=O)N[C@H](C(=O)N[C@@H](CCC(=O)O)C(=O)NCC(=O)N[C@@H](CCCCN)C(=O)N[C@@H](CCC(=O)O)C(=O)N[C@@H](CCC(=O)O)C(N)=O)[C@@H](C)O [desTAMRA-peptide, Ac-EEK^(biotin)GQSTSSHSK^AcNleSTEGKEE-NH2] (Ac-EEK(Biotin)GQSTSSHSK(Ac)[Nle]STEGKEE-NH2)
  kc: 0.038 s⁻¹
  kc/K1: 1.2
